# Test results published in the supplement of paper PMC12823440, “Inhibitors supercharge kinase turnover through native proteolytic circuits” (Nature, 2025).
# By UniProt entry, the sequences of proteins in these tests, tags left out. Where a name states a change or a piece, a line headed by the entry shows the natural chain unless it says otherwise.
# UniProt P28482, whole entry: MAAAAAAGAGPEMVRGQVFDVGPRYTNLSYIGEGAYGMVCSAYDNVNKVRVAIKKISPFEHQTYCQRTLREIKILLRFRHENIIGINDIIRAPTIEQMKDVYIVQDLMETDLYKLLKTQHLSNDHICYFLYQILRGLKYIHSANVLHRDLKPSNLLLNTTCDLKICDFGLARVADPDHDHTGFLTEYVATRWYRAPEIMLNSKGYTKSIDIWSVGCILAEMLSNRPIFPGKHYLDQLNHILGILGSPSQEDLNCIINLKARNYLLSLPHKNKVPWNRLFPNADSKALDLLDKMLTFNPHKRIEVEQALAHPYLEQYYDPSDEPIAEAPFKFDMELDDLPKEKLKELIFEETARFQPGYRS
# UniProt P49137, whole entry, looked up: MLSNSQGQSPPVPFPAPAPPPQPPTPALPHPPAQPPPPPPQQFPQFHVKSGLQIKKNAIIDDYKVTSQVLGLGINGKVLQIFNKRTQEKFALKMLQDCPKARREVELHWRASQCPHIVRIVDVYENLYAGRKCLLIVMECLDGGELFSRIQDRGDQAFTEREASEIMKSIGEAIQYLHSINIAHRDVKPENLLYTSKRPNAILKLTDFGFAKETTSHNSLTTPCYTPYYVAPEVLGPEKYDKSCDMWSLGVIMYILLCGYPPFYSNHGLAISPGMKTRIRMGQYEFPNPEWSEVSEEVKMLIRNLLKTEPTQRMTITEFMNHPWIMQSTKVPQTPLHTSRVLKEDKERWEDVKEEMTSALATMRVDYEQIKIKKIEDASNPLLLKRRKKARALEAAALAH
# UniProt Q96KB5: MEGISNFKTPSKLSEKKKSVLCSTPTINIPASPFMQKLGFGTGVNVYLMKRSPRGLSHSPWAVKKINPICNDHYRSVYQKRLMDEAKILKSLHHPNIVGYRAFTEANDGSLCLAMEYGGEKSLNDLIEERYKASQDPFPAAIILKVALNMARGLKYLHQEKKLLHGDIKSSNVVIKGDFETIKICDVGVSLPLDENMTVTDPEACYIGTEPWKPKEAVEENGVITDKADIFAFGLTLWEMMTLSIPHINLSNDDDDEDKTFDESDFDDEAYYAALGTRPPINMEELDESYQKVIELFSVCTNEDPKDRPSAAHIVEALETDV
# UniProt P09619, whole entry: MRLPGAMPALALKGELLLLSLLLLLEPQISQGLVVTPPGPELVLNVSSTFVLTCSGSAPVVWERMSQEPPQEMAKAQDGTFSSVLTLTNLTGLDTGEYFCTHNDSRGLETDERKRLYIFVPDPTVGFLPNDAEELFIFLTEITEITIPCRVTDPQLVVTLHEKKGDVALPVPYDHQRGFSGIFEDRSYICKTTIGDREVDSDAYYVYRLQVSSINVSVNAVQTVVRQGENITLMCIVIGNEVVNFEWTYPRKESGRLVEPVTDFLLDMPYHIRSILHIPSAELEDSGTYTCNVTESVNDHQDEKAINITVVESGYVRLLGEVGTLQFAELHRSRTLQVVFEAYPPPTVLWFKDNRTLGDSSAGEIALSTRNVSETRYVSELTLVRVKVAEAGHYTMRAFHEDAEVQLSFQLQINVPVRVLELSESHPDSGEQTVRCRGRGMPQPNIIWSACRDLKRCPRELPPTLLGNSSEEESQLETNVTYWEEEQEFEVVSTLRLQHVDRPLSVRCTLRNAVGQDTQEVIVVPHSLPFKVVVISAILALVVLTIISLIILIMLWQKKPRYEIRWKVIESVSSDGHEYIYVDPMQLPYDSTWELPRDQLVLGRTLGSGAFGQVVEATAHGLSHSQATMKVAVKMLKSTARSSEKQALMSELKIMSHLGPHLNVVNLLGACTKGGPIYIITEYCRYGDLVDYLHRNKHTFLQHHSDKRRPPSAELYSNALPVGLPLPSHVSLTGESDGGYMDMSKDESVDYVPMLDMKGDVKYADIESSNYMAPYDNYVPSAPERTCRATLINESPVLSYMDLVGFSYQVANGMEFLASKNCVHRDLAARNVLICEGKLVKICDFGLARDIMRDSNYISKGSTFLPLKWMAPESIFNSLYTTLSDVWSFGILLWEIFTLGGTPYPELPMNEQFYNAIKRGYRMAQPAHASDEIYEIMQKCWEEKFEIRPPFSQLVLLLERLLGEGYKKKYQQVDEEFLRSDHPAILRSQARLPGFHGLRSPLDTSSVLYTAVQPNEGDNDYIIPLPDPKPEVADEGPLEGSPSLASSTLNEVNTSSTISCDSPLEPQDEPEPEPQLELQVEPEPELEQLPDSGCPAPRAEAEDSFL
# UniProt P42356, whole entry, looked up: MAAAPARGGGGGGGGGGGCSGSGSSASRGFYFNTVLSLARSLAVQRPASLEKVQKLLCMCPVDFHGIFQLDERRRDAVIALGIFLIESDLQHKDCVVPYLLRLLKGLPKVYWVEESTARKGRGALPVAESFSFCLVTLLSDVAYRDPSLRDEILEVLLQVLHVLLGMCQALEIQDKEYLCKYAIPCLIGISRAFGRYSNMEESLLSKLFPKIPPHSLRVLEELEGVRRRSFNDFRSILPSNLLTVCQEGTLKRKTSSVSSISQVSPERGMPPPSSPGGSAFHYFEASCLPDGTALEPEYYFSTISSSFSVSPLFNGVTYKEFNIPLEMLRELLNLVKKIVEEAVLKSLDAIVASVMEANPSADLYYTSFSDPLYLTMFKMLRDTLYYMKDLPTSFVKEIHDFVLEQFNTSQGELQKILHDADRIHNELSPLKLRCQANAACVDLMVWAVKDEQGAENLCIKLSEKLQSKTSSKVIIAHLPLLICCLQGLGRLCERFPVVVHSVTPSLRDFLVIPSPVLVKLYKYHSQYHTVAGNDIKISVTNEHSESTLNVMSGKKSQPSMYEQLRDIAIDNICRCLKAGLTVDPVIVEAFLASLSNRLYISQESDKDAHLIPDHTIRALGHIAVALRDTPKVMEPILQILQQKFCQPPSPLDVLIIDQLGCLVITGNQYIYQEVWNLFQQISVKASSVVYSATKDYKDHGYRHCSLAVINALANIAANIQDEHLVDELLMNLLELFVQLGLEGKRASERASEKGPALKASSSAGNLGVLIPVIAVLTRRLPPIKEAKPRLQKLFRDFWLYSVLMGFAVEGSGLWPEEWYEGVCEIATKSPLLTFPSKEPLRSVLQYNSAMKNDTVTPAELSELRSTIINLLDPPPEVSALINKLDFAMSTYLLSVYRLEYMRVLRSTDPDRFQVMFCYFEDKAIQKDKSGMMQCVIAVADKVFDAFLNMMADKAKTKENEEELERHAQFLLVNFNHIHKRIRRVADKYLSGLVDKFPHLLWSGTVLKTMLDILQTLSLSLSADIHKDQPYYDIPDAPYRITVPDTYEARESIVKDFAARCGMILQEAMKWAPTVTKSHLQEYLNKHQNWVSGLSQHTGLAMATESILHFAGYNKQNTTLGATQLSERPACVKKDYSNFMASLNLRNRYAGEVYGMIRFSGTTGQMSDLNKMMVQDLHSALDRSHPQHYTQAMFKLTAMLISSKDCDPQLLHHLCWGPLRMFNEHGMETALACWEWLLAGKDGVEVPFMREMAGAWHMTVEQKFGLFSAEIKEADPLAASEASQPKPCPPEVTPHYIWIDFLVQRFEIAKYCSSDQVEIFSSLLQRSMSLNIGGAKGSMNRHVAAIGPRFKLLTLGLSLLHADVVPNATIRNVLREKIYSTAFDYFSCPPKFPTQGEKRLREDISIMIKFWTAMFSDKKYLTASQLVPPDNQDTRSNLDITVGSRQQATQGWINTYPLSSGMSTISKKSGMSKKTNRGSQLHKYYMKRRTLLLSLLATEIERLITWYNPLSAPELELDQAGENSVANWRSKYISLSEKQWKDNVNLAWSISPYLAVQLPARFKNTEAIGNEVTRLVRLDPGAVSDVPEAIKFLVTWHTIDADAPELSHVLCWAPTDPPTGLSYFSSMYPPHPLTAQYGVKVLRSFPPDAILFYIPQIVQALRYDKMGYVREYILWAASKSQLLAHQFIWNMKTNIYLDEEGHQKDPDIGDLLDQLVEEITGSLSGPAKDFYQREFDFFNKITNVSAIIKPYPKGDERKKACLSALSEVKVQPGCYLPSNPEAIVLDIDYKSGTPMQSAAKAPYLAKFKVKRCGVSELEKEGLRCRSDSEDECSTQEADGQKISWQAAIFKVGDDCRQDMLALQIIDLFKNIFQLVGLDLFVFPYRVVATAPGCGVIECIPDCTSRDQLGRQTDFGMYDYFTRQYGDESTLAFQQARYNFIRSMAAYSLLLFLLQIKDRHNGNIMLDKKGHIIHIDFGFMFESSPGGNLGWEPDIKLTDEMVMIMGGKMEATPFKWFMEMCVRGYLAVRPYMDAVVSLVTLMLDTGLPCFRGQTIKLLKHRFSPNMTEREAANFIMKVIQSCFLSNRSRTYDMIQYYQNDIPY
# UniProt P53350, whole entry: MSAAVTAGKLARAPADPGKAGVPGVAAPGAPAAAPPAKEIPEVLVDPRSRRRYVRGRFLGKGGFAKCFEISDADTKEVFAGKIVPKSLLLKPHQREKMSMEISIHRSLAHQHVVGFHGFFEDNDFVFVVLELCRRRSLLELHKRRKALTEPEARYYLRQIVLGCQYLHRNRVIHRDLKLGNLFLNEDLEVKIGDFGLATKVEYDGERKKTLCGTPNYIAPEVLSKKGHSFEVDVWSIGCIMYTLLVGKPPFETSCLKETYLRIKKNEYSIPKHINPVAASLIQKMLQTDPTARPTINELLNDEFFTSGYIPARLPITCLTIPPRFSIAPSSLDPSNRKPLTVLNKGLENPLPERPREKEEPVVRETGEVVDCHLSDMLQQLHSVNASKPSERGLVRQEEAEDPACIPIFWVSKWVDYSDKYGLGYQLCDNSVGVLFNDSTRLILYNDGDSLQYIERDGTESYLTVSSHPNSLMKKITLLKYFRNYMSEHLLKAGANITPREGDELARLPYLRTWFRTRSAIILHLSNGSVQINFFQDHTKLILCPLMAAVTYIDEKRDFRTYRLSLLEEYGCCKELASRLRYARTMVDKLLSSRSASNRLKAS
# UniProt Q14289, whole entry, looked up: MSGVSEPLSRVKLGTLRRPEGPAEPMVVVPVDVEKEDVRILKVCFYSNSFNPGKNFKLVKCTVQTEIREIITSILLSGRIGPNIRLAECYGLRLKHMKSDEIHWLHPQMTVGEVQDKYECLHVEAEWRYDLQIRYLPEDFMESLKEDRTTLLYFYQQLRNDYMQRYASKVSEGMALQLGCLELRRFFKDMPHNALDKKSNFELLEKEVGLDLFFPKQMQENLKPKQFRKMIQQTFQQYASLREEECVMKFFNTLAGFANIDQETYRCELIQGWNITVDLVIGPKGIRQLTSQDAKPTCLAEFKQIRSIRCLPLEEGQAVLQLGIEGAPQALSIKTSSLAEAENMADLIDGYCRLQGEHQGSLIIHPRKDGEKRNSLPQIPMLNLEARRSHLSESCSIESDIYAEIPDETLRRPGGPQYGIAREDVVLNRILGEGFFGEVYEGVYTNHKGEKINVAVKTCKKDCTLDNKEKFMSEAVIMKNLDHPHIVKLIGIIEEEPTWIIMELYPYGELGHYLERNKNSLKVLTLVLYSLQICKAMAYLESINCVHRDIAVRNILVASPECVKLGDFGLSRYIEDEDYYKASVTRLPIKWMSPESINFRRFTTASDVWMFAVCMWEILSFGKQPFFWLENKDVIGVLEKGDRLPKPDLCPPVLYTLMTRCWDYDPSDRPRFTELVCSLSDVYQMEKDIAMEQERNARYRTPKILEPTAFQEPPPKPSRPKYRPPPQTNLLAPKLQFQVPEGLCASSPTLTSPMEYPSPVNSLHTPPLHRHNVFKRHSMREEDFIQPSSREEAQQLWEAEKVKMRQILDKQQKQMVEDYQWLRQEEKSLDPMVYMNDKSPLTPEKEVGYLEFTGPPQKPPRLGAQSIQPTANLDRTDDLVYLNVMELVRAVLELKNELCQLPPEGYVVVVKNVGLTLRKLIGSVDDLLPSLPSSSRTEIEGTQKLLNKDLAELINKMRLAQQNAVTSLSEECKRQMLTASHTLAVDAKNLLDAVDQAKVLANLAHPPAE
# Some of the results follow. The calls rarely recur for the same compound in another form.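 Kinases, fused to nanoluciferase, were expressed in K562 cells; luminescence was measured every 4 h from 2 to 18 h as percent of control (DMSO = 100%, positive control = 0%). A time point is decreased if signal falls significantly (2 sigma). Hits were called by the authors by a rule that is not shown; the count of time points alone does not decide it.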
# Columns and labels:
# Test in all cases: kinase-Nluc reporter destabilization hit call (1 = scored as downregulated) (binary); higher = compound decreases kinase abundance
# Conditions in all cases: K562; 2-18 h
# MAPK1 = MAPK1 (UniProt P28482)
# MAPK4 = MAPK4 (UniProt P31152)
# MAPKAPK2 = MAPKAPK2 (UniProt P49137)
# MKNK1 = MKNK1 (UniProt Q9BUB5)
# NTRK2 = NTRK2 (UniProt Q16620)
# NTRK3 = NTRK3 (UniProt Q16288)
# PAK4 = PAK4 (UniProt O96013)
# PBK = PBK (UniProt Q96KB5)
# PDGFRB = PDGFRB (UniProt P09619)
# PDK1 = PDK1 (UniProt Q15118)
# PDPK1 = PDPK1 (UniProt O15530)
# PIK4CA = PIK4CA (UniProt P42356)
# PIK4CB = PIK4CB (UniProt Q9UBF8)
# PLK1 = PLK1 (UniProt P53350)
# PRKAA1 = PRKAA1 (UniProt Q13131)
# PRKCA = PRKCA (UniProt P17252)
# PTK2 = PTK2 (UniProt Q05397)
# PTK2B = PTK2B (UniProt Q14289)
# RAF1 = RAF1 (UniProt P04049)
# [1] = target: RAF1_S257L (clone: RAF1_mut) (UniProt P04049)
SMILES,kinase-Nluc reporter destabilization hit call (MAPK1),kinase-Nluc reporter destabilization hit call (MAPK4),kinase-Nluc reporter destabilization hit call (MAPKAPK2),kinase-Nluc reporter destabilization hit call (MKNK1),kinase-Nluc reporter destabilization hit call (NTRK2),kinase-Nluc reporter destabilization hit call (NTRK3),kinase-Nluc reporter destabilization hit call (PAK4),kinase-Nluc reporter destabilization hit call (PBK),kinase-Nluc reporter destabilization hit call (PDGFRB),kinase-Nluc reporter destabilization hit call (PDK1),kinase-Nluc reporter destabilization hit call (PDPK1),kinase-Nluc reporter destabilization hit call (PIK4CA),kinase-Nluc reporter destabilization hit call (PIK4CB),kinase-Nluc reporter destabilization hit call (PLK1),kinase-Nluc reporter destabilization hit call (PRKAA1),kinase-Nluc reporter destabilization hit call (PRKCA),kinase-Nluc reporter destabilization hit call (PTK2),kinase-Nluc reporter destabilization hit call (PTK2B),kinase-Nluc reporter destabilization hit call (RAF1),kinase-Nluc reporter destabilization hit call [1]
C=CC(=O)N1CCN(CCCn2c(=O)c(-c3c(Cl)c(OC)cc(OC)c3Cl)cc3cnc(NC)nc32)CC1 (10 µM),inactive: 0,inactive: 0,inactive: 0,inactive: 0,inactive: 0,inactive: 0,inactive: 0,inactive: 0,inactive: 0,inactive: 0,inactive: 0,inactive: 0,inactive: 0,inactive: 0,inactive: 0,inactive: 0,inactive: 0,inactive: 0,inactive: 0,inactive: 0
COCCNCCc1cccc(Nc2ncc3c(n2)-c2ccccc2[C@H](c2ccccc2F)C3)c1 [Derazantinib] (2.5 µM),inactive: 0,inactive: 0,inactive: 0,inactive: 0,inactive: 0,inactive: 0,inactive: 0,inactive: 0,inactive: 0,inactive: 0,inactive: 0,inactive: 0,inactive: 0,inactive: 0,inactive: 0,inactive: 0,inactive: 0,inactive: 0,inactive: 0,inactive: 0
CC(C)(/C=C(\C#N)C(=O)N1CCC[C@@H](n2nc(-c3ccc(Oc4ccccc4)cc3F)c3c(N)ncnc32)C1)N1CCN(C2COC2)CC1 (2.5 µM),inactive: 0,inactive: 0,inactive: 0,inactive: 0,inactive: 0,inactive: 0,inactive: 0,inactive: 0,inactive: 0,inactive: 0,inactive: 0,inactive: 0,inactive: 0,inactive: 0,inactive: 0,inactive: 0,inactive: 0,inactive: 0,inactive: 0,inactive: 0
COc1cc(OC)cc(N(CCNC(C)C)c2ccc3ncc(-c4cnn(C)c4)nc3c2)c1 [Erdafitinib] (2.5 µM),inactive: 0,inactive: 0,inactive: 0,inactive: 0,inactive: 0,inactive: 0,inactive: 0,inactive: 0,inactive: 0,inactive: 0,inactive: 0,inactive: 0,inactive: 0,inactive: 0,inactive: 0,inactive: 0,inactive: 0,inactive: 0,inactive: 0,active: 1
COc1cc(Nc2ncc3c(n2)-c2ccc(Cl)cc2C(c2c(F)cccc2OC)=NC3)ccc1C(=O)O [Alisertib] (2.5 µM),inactive: 0,inactive: 0,inactive: 0,inactive: 0,inactive: 0,inactive: 0,inactive: 0,inactive: 0,inactive: 0,inactive: 0,inactive: 0,inactive: 0,inactive: 0,inactive: 0,inactive: 0,inactive: 0,inactive: 0,inactive: 0,inactive: 0,inactive: 0
NC(=O)c1ccc(-c2nc(-c3ccccn3)c(-c3ccc4c(c3)OCO4)[nH]2)cc1 (10 µM),inactive: 0,inactive: 0,inactive: 0,inactive: 0,inactive: 0,inactive: 0,inactive: 0,inactive: 0,inactive: 0,inactive: 0,inactive: 0,inactive: 0,inactive: 0,inactive: 0,inactive: 0,inactive: 0,inactive: 0,inactive: 0,inactive: 0,inactive: 0
CC(C)C(=O)Nc1ncc(-c2cc(C(F)F)nn2-c2c(Cl)cccc2Cl)s1 (10 µM),inactive: 0,inactive: 0,inactive: 0,inactive: 0,inactive: 0,inactive: 0,inactive: 0,inactive: 0,inactive: 0,inactive: 0,inactive: 0,inactive: 0,inactive: 0,inactive: 0,inactive: 0,inactive: 0,active: 1,inactive: 0,inactive: 0,inactive: 0
COc1cc(C)c(Sc2cnc(NC(=O)c3ccc(CNC(C)C(C)(C)C)cc3)s2)cc1C(=O)N1CCN(C(C)=O)CC1 (stereo not given) (2.5 µM),inactive: 0,inactive: 0,inactive: 0,inactive: 0,inactive: 0,inactive: 0,inactive: 0,inactive: 0,inactive: 0,inactive: 0,inactive: 0,inactive: 0,inactive: 0,inactive: 0,inactive: 0,inactive: 0,inactive: 0,inactive: 0,inactive: 0,inactive: 0
O=c1c(-c2ccc(O)cc2)coc2cc(O)cc(O)c12 [Genistein] (10 µM),inactive: 0,inactive: 0,inactive: 0,inactive: 0,inactive: 0,inactive: 0,inactive: 0,inactive: 0,inactive: 0,inactive: 0,inactive: 0,inactive: 0,inactive: 0,inactive: 0,inactive: 0,inactive: 0,inactive: 0,inactive: 0,inactive: 0,inactive: 0

# Copied from the list.
# `COc1cc(C)c(Sc2cnc(NC(=O)c3ccc(CNC(C)C(C)(C)C)cc3)s2)cc1C(=O)N1CCN(C(C)=O)CC1` (stereo not given) (2.5 µM) – kinase-Nluc reporter destabilization hit call (PTK2): inactive: 0
# `COc1cc(OC)cc(N(CCNC(C)C)c2ccc3ncc(-c4cnn(C)c4)nc3c2)c1` [Erdafitinib] (2.5 µM) – kinase-Nluc reporter destabilization hit call (PRKCA): inactive: 0
